Reference: PubChem BioAssay AID1259254 (NCATS, 2017)
In all, the deposit lists about 59,000 reagents; below is an unselected part. In the full data, about 1,550 (2.6%) got an active call. 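G2 share is only a proxy for re-replication; each gene was hit by three separate siRNAs, and active genes were retested.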 Raw values vary from plate to plate and are shown uncorrected. Unmarked entries are inactive. Reagents against one gene are numbered here. The record does not give: the amount of reagent.

Test: 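Genome-wide screen for genes that prevent DNA re-replication in cancer cells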 (primary screen)
Cell system: human HCT116 colorectal cancer cells
Knock-down reagent: single siRNA against human genes
Timing: 3 days
Measurement: 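Imaged Hoechst DNA stain sorts each cell into a cycle phase by DNA amount; per plate, G2 fraction set to 0% for non-targeting and 100% for GMNN siRNA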
Direction: G2 robust z-score and G2 cells, % of GMNN control: higher = more G2 cells, more excess DNA replication; raw share of cells in G2: higher = larger share of cells with G2 DNA content
Hit rule: 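An siRNA counts as active if its G2 robust z-score lies at least 5 MADs above the screen median; here such calls match roughly 38% of GMNN control or more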

target gene	reagent	G2 robust z-score	G2 cells, % of GMNN control	raw share of cells in G2 (%)
RNF183 (GeneID 138065)	1	2.11	17.8	10.9
RNF183 (GeneID 138065)	2	1.61	14.3	7.64
RNF183 (GeneID 138065)	3	-0.584	-1.14	2.17
OTUD4 (GeneID 54726)	1	-1.05	-4.43	4.02
OTUD4 (GeneID 54726)	2	-0.909	-3.43	3.69
OTUD4 (GeneID 54726)	3	0.0747	3.49	5.21
TIMCCP1 (GeneID 387071)	1	0.193	4.32	4.83
TIMCCP1 (GeneID 387071)	2	0.543	6.79	5.12
TIMCCP1 (GeneID 387071)	3	-0.242	1.27	4.12
CLCN5 (GeneID 1184)	1	-0.603	-1.28	4.82
CLCN5 (GeneID 1184)	2	3.98	31	15.3
CLCN5 (GeneID 1184)	3	1.73	15.2	10.3
FOXA1 (GeneID 3169)	1	-0.201	1.55	4.77
FOXA1 (GeneID 3169)	2	1.26	11.8	9.33
FOXA1 (GeneID 3169)	3	-1.68	-8.89	2.3
OTOGL (GeneID 283310)	1	-0.607	-1.3	3.17
OTOGL (GeneID 283310)	2	-0.0162	2.85	4.15
OTOGL (GeneID 283310)	3	0.15	4.02	4.49
CALCA (GeneID 796)	1	7.43 (active)	55.3	24.7
CALCA (GeneID 796)	2	-0.393	0.199	4.07
CALCA (GeneID 796)	3	0.264	4.83	6.36
BAK1 (GeneID 578)	1	0.12	3.81	6.02
BAK1 (GeneID 578)	2	0.451	6.14	7.26
BAK1 (GeneID 578)	3	-1.03	-4.29	2.39
AHCYL1 (GeneID 10768)	1	-1.19	-5.39	2.1
AHCYL1 (GeneID 10768)	2	-1.39	-6.79	3.8
AHCYL1 (GeneID 10768)	3	-0.734	-2.2	4.74
THUMPD3 (GeneID 25917)	1	0.0901	3.6	5.77
THUMPD3 (GeneID 25917)	2	2.06	17.4	11.5
THUMPD3 (GeneID 25917)	3	3.21	25.5	12.2
TFRC (GeneID 7037)	1	-0.737	-2.22	3.83
TFRC (GeneID 7037)	2	-0.576	-1.09	4.6
TFRC (GeneID 7037)	3	-0.496	-0.52	3.97
ZNF579 (GeneID 163033)	1	0.95	9.65	6.52
ZNF579 (GeneID 163033)	2	-0.311	0.783	3.8
ZNF579 (GeneID 163033)	3	-0.471	-0.35	2.97
MPTX1 (GeneID 649458)	1	-0.485	-0.443	3.13
MPTX1 (GeneID 649458)	2	-0.451	-0.208	3.1
MPTX1 (GeneID 649458)	3	1.32	12.3	6.42
ASRGL1 (GeneID 80150)	1	-1.07	-4.53	3.69
ASRGL1 (GeneID 80150)	2	2.11	17.8	10.3
ASRGL1 (GeneID 80150)	3	3.06	24.5	13.4
FZD8 (GeneID 8325)	1	5.15 (active)	39.2	19.9
FZD8 (GeneID 8325)	2	-0.264	1.11	4.9
FZD8 (GeneID 8325)	3	0.32	5.22	4.87
RNPC3 (GeneID 55599)	1	2.46	20.3	12.3
RNPC3 (GeneID 55599)	2	-1.07	-4.55	2.25
RNPC3 (GeneID 55599)	3	-1.14	-5.07	1.52
ABHD8 (GeneID 79575)	1	-1.23	-5.7	3.28
ABHD8 (GeneID 79575)	2	-0.494	-0.508	4.17
ABHD8 (GeneID 79575)	3	0.534	6.72	6.67
AREG (GeneID 374)	1	0.074	3.49	5.29
AREG (GeneID 374)	2	-0.0121	2.88	5.7
AREG (GeneID 374)	3	-0.38	0.297	5.18
COPS5 (GeneID 10987)	1	0.0371	3.23	4.6
COPS5 (GeneID 10987)	2	0.943	9.6	10.3
COPS5 (GeneID 10987)	3	-0.226	1.37	3.91
ALG1L1P (GeneID 200810)	1	3.57	28.1	13.7
ALG1L1P (GeneID 200810)	2	1.78	15.5	8.15
ALG1L1P (GeneID 200810)	3	-0.515	-0.657	2.55
CDH12 (GeneID 1010)	1	-0.482	-0.425	4.81
CDH12 (GeneID 1010)	2	-0.895	-3.33	3.78
CDH12 (GeneID 1010)	3	0.352	5.44	5.97
TMEM43 (GeneID 79188)	1	-1.28	-6.01	1.11
TMEM43 (GeneID 79188)	2	-0.0608	2.54	5.69
TMEM43 (GeneID 79188)	3	-0.57	-1.04	4.14
APP (GeneID 351)	1	2.27	18.9	11
APP (GeneID 351)	2	0.204	4.4	6.64
APP (GeneID 351)	3	1.82	15.8	10.1

Hits (from the list above):
target gene	reagent	G2 robust z-score	G2 cells, % of GMNN control	raw share of cells in G2 (%)
CALCA (GeneID 796)	1	7.43 (active)	55.3	24.7
FZD8 (GeneID 8325)	1	5.15 (active)	39.2	19.9
